Measured values from the supplement of paper PMC11264405.

Assays:
Test in all cases: minimum inhibitory concentration
[1] = compound: CC(=O)NC[C@H]1CN(c2ccc(N3CCOCC3)c(F)c2)C(=O)O1 [linezolid]
[2] = compound: CCC[C@@H]1C[C@@H](C(=O)N[C@@H]([C@H]2O[C@H](SC)[C@H](O)[C@@H](O)[C@H]2O)[C@H](C)Cl)N(C)C1 [clindamycin]
[3] = compound: CCc1c(Cl)c(O)c(Cl)c(O)c1C(=O)O[C@H]1[C@H](O)[C@H](OC)[C@H](OC/C2=C\C=C\C[C@H](O)/C(C)=C/[C@H](CC)[C@@H](O[C@@H]3OC(C)(C)[C@@H](OC(=O)C(C)C)[C@H](O)[C@@H]3O)/C(C)=C/C(C)=C/C[C@@H]([C@@H](C)O)OC2=O)O[C@@H]1C [fidaxomicin]
[4] = compound: CN(C)c1cc(NC(=O)CNC(C)(C)C)c(O)c2c1C[C@H]1C[C@H]3[C@H](N(C)C)C(O)=C(C(N)=O)C(=O)[C@@]3(O)C(O)=C1C2=O [tigecycline]
[5] = compound: CN[C@H](CC(C)C)C(=O)N[C@H]1C(=O)N[C@@H](CC(N)=O)C(=O)N[C@H]2C(=O)N[C@H]3C(=O)N[C@H](C(=O)N[C@H](C(=O)O)c4cc(O)cc(O)c4-c4cc3ccc4O)[C@H](O)c3ccc(c(Cl)c3)Oc3cc2cc(c3O[C@@H]2O[C@H](CO)[C@@H](O)[C@H](O)[C@H]2O[C@H]2C[C@](C)(N)[C@H](O)[C@H](C)O2)Oc2ccc(cc2Cl)[C@H]1O [vancomycin]
[6] = compound: CO[C@H]1/C=C/O[C@@]2(C)Oc3c(C)c(O)c4c(O)c(c(/C=N/N5CCN(C)CC5)c(O)c4c3C2=O)NC(=O)/C(C)=C\C=C\[C@H](C)[C@H](O)[C@@H](C)[C@@H](O)[C@@H](C)[C@H](OC(C)=O)[C@@H]1C [rifampicin]
[7] = compound: C[C@@H](O)[C@H]1C(=O)N2C(C(=O)O)=C(SCCNC=N)C[C@H]12 [imipenem]
[8] = compound: C[C@@H](O)[C@H]1C(=O)N2C(C(=O)O)=C(S[C@@H]3CN[C@H](C(=O)N(C)C)C3)[C@H](C)[C@H]12 [meropenem]
[9] = compound: Cc1ncc([N+](=O)[O-])n1CCO [metronidazole]

| Test System | minimum inhibitory concentration [1] | minimum inhibitory concentration [2] | minimum inhibitory concentration [3] | minimum inhibitory concentration [4] | minimum inhibitory concentration [5] | minimum inhibitory concentration [6] | minimum inhibitory concentration [7] | minimum inhibitory concentration [8] | minimum inhibitory concentration [9] |
| --- | --- | --- | --- | --- | --- | --- | --- | --- | --- |
| Clostridioides difficile PCR ribotype 181 isolate #242 (European region: East, country: Romania, isolate source: Human, ribotype: 181) | 2 µg/mL | 16 µg/mL | 0.03 µg/mL | < 0.03 µg/mL | 0.5 µg/mL | > 32 µg/mL | 4 µg/mL | 4 µg/mL | 1 µg/mL |
| Clostridioides difficile PCR ribotype 181 isolate #243 (European region: East, country: Romania, isolate source: Human, ribotype: 181) | 2 µg/mL | 16 µg/mL | 0.03 µg/mL | < 0.03 µg/mL | 0.5 µg/mL | > 32 µg/mL | 8 µg/mL | 4 µg/mL | 1 µg/mL |
| Clostridioides difficile PCR ribotype 181 isolate #244 (European region: East, country: Romania, isolate source: Human, ribotype: 181) | 2 µg/mL | 16 µg/mL | 0.03 µg/mL | < 0.03 µg/mL | 0.5 µg/mL | > 32 µg/mL | 4 µg/mL | 4 µg/mL | 1 µg/mL |
| Clostridioides difficile PCR ribotype 181 isolate #245 (European region: East, country: Romania, isolate source: Human, ribotype: 181) | 2 µg/mL | 16 µg/mL | 0.03 µg/mL | < 0.03 µg/mL | 0.5 µg/mL | > 32 µg/mL | 4 µg/mL | 4 µg/mL | 1 µg/mL |
| Clostridioides difficile PCR ribotype 181 isolate #246 (European region: East, country: Romania, isolate source: Human, ribotype: 181) | 2 µg/mL | 16 µg/mL | 0.03 µg/mL | 0.06 µg/mL | 0.5 µg/mL | > 32 µg/mL | 8 µg/mL | 4 µg/mL | 1 µg/mL |
| Clostridioides difficile PCR ribotype 181 isolate #247 (European region: East, country: Romania, isolate source: Human, ribotype: 181) | 2 µg/mL | 16 µg/mL | 0.03 µg/mL | < 0.03 µg/mL | 0.5 µg/mL | > 32 µg/mL | 4 µg/mL | 4 µg/mL | 1 µg/mL |
| Clostridioides difficile PCR ribotype 181 isolate #248 (European region: East, country: Romania, isolate source: Human, ribotype: 181) | 2 µg/mL | 16 µg/mL | 0.03 µg/mL | < 0.03 µg/mL | 0.5 µg/mL | > 32 µg/mL | 4 µg/mL | 4 µg/mL | 1 µg/mL |
| Clostridioides difficile PCR ribotype 181 isolate #249 (European region: East, country: Romania, isolate source: Human, ribotype: 181) | 2 µg/mL | 8 µg/mL | 0.125 µg/mL | < 0.03 µg/mL | 0.5 µg/mL | > 32 µg/mL | 4 µg/mL | 4 µg/mL | 1 µg/mL |
| Clostridioides difficile PCR ribotype 181 isolate #250 (European region: East, country: Romania, isolate source: Human, ribotype: 181) | 2 µg/mL | 8 µg/mL | 0.015 µg/mL | < 0.03 µg/mL | 0.5 µg/mL | > 32 µg/mL | 4 µg/mL | 4 µg/mL | 1 µg/mL |
| Clostridioides difficile PCR ribotype 181 isolate #251 (European region: East, country: Romania, isolate source: Human, ribotype: 181) | 1 µg/mL | 16 µg/mL | 0.03 µg/mL | < 0.03 µg/mL | 0.5 µg/mL | > 32 µg/mL | 4 µg/mL | 4 µg/mL | 1 µg/mL |
| Clostridioides difficile PCR ribotype 181 isolate #252 (European region: East, country: Romania, isolate source: Human, ribotype: 181) | 1 µg/mL | 16 µg/mL | 0.015 µg/mL | < 0.03 µg/mL | 1 µg/mL | > 32 µg/mL | 4 µg/mL | 4 µg/mL | 1 µg/mL |
| Clostridioides difficile PCR ribotype 181 isolate #253 (European region: East, country: Romania, isolate source: Human, ribotype: 181) | 1 µg/mL | 8 µg/mL | 0.015 µg/mL | < 0.03 µg/mL | 0.5 µg/mL | > 32 µg/mL | 4 µg/mL | 4 µg/mL | 1 µg/mL |
| Clostridioides difficile PCR ribotype 181 isolate #254 (European region: North, country: UK, isolate source: Human, ribotype: 181) | 2 µg/mL | 8 µg/mL | 0.06 µg/mL | < 0.03 µg/mL | 0.5 µg/mL | > 32 µg/mL | 4 µg/mL | 4 µg/mL | 1 µg/mL |
